Data as given in paper PMC12012021.
No constants are given. Whether binding was seen depends on the method and setting. In cells and extracts the contact can be indirect. Some results given as binding are weak or reduced against the parent protein; the word gives no strength. For some assays here: Sequences can lack the tags named with a protein. One block for each molecule: values may come before it.

Sequences of proteins named here, by UniProt entry; tags and fusion partners are left off.
UniProt Q9P286: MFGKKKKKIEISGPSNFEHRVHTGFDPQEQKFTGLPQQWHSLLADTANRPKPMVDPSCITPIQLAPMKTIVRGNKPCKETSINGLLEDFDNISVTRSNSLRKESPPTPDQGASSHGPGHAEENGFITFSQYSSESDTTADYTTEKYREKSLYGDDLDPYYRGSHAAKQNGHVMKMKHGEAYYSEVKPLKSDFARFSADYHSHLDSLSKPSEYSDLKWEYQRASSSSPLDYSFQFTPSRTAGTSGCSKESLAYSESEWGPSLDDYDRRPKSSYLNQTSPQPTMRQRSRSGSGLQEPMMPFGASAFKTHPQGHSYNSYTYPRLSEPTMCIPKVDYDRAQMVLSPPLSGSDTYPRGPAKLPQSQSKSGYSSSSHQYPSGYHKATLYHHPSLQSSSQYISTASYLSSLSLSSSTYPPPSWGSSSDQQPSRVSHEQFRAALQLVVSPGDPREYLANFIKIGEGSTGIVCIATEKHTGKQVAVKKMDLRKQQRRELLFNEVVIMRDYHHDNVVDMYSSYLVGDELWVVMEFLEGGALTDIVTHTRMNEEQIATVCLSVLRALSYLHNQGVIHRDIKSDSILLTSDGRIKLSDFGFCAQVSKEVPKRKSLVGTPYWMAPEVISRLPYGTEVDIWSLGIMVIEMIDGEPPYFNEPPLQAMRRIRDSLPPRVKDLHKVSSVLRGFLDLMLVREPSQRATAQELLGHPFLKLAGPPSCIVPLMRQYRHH

Key:
[1] = molecular target: T1, FLAG-tagged METTL14 (human) (UniProt Q9HCE5); assay: co-IP; GFP-PAK5 and FLAG-METTL14 in HEK-293 cells; IP lysis buffer, Protein A/G agarose beads, overnight at 4 °C
T1 sequence: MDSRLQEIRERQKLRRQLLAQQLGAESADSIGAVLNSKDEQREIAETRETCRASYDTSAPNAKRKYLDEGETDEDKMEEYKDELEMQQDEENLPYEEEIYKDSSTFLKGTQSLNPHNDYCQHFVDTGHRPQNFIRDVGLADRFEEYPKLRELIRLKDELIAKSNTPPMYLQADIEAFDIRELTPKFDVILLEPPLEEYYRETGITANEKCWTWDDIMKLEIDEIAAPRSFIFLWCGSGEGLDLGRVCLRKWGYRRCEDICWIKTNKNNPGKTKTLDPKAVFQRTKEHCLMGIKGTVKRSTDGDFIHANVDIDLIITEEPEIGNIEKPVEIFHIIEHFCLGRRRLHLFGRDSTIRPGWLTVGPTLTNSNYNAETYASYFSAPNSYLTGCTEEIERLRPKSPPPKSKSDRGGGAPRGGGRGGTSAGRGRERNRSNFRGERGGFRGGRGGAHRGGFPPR

GST-METTL14 (human) = molecular target: T2, GST-METTL14 (human) (UniProt Q9HCE5); assay: pull-down; GST pulldown; details are referred to ref. 57
T2 sequence: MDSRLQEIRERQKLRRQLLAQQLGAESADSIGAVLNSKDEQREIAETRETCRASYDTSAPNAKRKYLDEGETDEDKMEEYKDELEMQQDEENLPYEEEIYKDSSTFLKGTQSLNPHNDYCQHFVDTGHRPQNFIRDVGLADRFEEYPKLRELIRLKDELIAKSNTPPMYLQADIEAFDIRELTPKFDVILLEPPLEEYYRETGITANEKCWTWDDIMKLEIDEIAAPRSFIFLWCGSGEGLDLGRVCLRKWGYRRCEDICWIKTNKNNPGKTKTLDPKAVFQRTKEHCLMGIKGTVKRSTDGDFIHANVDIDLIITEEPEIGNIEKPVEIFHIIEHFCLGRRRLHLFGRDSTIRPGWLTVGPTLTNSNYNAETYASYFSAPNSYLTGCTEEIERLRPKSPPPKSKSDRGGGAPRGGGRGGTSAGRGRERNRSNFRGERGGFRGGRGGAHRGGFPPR

[2] = molecular target: T3, METTL14 (human (endogenous in SK-BR-3)) (UniProt Q9HCE5); assay: co-IP; endogenous proteins in SK-BR-3 cells; IP lysis buffer, Protein A/G agarose beads, overnight at 4 °C
T3 sequence: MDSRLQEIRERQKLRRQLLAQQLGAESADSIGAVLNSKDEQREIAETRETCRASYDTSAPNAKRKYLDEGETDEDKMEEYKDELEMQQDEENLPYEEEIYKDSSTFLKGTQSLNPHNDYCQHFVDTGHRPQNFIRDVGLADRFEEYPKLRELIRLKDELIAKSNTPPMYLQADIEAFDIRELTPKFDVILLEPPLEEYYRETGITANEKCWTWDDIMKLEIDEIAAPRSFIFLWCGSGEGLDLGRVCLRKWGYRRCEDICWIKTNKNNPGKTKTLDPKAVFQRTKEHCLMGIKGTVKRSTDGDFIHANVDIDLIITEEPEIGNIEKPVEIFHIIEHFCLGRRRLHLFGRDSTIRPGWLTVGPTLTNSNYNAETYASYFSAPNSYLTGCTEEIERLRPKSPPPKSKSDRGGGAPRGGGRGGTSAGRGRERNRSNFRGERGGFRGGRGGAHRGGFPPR

[3] = molecular target: HER2 (human (endogenous in SK-BR-3 and BT474)) (UniProt P04626); assay: co-IP; IP and IB on cytoplasmic and nuclear protein extracts of SK-BR-3 cells; which of the two was precipitated is not told
[4] = molecular target: HER2 (human (endogenous in SK-BR-3 and BT474)) (UniProt P04626); assay: co-IP; IP and IB in SK-BR-3 cells transfected with the indicated plasmids (MALAT1 overexpression, Fig. 3G), in BT474 cells with FLAG vector or FLAG-PAK5 and MALAT1 siRNA or control (Fig. 3H), and in BT474 cells with PAK5 WT or PAK5 KM (Fig. 6K); Protein A/G agarose beads, overnight at 4 °C

binding [1]: binds
Molecule: GFP-tagged PAK5 (from UniProt Q9P286 1-719) (enzyme)

binding (GST-METTL14 (human)): binds
Molecule: PAK5 (as used in the GST pulldown) (from UniProt Q9P286 1-719) (enzyme)

binding [2]: binds
Molecule: PAK5 (from UniProt Q9P286 1-719) (enzyme)

binding [3]: binds
binding [4]: binds
B1: deubiquitinase USP8 (enzyme, UniProt P40818 1-1118)
chain: MPAVASVPKELYLSSSLKDLNKKTEVKPEKISTKSYVHSALKIFKTAEECRLDRDEERAYVLYMKYVTVYNLIKKRPDFKQQQDYFHSILGPGNIKKAVEEAERLSESLKLRYEEAEVRKKLEEKDRQEEAQRLQQKRQETGREDGGTLAKGSLENVLDSKDKTQKSNGEKNEKCETKEKGAITAKELYTMMTDKNISLIIMDARRMQDYQDSCILHSLSVPEEAISPGVTASWIEAHLPDDSKDTWKKRGNVEYVVLLDWFSSAKDLQIGTTLRSLKDALFKWESKTVLRNEPLVLEGGYENWLLCYPQYTTNAKVTPPPRRQNEEVSISLDFTYPSLEESIPSKPAAQTPPASIEVDENIELISGQNERMGPLNISTPVEPVAASKSDVSPIIQPVPSIKNVPQIDRTKKPAVKLPEEHRIKSESTNHEQQSPQSGKVIPDRSTKPVVFSPTLMLTDEEKARIHAETALLMEKNKQEKELRERQQEEQKEKLRKEEQEQKAKKKQEAEENEITEKQQKAKEEMEKKESEQAKKEDKETSAKRGKEITGVKRQSKSEHETSDAKKSVEDRGKRCPTPEIQKKSTGDVPHTSVTGDSGSGKPFKIKGQPESGILRTGTFREDTDDTERNKAQREPLTRARSEEMGRIVPGLPSGWAKFLDPITGTFRYYHSPTNTVHMYPPEMAPSSAPPSTPPTHKAKPQIPAERDREPSKLKRSYSSPDITQAIQEEEKRKPTVTPTVNRENKPTCYPKAEISRLSASQIRNLNPVFGGSGPALTGLRNLGNTCYMNSILQCLCNAPHLADYFNRNCYQDDINRSNLLGHKGEVAEEFGIIMKALWTGQYRYISPKDFKITIGKINDQFAGYSQQDSQELLLFLMDGLHEDLNKADNRKRYKEENNDHLDDFKAAEHAWQKHKQLNESIIVALFQGQFKSTVQCLTCHKKSRTFEAFMYLSLPLASTSKCTLQDCLRLFSKEEKLTDNNRFYCSHCRARRDSLKKIEIWKLPPVLLVHLKRFSYDGRWKQKLQTSVDFPLENLDLSQYVIGPKNNLKKYNLFSVSNHYGGLDGGHYTAYCKNAARQRWFKFDDHEVSDISVSSVKSSAAYILFYTSLGPRVTDVAT
